Like-named read-outs stand apart in the source and are kept apart here. Results are given in words; binding and its absence hold for the method and conditions named. In cells and extracts the contact can be indirect. Some entries that bind do so weakly or less than the wild type.
Experiments:
Assay in all cases: proximity ligation
[1] = molecular target: Akt2 (endogenous, mouse primary neurons) (mouse (endogenous in primary neurons)) (UniProt Q60823)
[2] = molecular target: T1, Auts2 (endogenous, mouse primary neurons) (mouse (endogenous in primary neurons))
T1 sequence: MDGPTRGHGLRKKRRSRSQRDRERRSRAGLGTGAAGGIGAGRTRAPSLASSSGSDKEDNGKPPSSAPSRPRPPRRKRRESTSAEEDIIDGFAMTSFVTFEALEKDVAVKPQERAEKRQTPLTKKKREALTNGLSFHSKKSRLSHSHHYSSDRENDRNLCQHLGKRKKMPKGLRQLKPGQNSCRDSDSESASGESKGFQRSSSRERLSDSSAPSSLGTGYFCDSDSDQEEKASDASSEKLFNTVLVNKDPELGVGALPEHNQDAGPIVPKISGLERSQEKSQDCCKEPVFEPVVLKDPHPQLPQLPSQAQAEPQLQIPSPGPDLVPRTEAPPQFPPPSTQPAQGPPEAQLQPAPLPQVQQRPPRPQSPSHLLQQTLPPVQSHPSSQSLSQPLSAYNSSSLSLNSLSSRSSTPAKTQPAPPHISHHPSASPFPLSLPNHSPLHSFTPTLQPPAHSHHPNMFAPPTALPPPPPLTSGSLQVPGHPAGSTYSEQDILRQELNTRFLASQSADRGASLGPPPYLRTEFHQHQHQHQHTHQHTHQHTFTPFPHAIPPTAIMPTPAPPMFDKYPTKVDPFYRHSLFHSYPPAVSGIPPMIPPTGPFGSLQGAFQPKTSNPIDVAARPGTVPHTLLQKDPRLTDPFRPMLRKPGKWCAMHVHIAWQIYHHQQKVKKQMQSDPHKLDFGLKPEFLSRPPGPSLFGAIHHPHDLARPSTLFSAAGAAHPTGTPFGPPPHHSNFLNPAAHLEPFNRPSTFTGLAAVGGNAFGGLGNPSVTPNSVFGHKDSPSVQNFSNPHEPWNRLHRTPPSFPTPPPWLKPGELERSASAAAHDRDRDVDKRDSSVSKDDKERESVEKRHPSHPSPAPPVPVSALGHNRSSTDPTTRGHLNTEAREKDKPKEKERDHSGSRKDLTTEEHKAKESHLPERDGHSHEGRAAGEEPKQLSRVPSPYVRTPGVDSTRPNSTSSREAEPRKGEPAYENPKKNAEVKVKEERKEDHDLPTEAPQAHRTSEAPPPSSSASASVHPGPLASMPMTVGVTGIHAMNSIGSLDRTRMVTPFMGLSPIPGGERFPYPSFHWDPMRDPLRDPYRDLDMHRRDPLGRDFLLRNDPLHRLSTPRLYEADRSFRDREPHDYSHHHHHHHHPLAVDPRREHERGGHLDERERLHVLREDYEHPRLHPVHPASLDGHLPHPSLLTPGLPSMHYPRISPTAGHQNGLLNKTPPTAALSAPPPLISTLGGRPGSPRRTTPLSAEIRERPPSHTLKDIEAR

By UniProt entry, the sequences of proteins in these tests, tags left out.
UniProt Q60823: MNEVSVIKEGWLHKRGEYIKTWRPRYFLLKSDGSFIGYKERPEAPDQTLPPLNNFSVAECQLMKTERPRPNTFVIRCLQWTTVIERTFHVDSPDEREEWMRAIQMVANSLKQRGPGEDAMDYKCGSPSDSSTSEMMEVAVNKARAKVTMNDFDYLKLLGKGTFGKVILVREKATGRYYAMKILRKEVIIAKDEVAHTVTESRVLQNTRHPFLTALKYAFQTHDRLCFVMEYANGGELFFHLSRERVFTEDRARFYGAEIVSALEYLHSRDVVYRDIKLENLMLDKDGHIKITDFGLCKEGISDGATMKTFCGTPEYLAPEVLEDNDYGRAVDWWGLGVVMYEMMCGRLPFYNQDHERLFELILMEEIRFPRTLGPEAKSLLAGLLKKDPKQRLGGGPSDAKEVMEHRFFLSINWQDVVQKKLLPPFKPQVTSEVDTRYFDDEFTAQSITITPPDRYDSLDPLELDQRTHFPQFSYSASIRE
UniProt O88196: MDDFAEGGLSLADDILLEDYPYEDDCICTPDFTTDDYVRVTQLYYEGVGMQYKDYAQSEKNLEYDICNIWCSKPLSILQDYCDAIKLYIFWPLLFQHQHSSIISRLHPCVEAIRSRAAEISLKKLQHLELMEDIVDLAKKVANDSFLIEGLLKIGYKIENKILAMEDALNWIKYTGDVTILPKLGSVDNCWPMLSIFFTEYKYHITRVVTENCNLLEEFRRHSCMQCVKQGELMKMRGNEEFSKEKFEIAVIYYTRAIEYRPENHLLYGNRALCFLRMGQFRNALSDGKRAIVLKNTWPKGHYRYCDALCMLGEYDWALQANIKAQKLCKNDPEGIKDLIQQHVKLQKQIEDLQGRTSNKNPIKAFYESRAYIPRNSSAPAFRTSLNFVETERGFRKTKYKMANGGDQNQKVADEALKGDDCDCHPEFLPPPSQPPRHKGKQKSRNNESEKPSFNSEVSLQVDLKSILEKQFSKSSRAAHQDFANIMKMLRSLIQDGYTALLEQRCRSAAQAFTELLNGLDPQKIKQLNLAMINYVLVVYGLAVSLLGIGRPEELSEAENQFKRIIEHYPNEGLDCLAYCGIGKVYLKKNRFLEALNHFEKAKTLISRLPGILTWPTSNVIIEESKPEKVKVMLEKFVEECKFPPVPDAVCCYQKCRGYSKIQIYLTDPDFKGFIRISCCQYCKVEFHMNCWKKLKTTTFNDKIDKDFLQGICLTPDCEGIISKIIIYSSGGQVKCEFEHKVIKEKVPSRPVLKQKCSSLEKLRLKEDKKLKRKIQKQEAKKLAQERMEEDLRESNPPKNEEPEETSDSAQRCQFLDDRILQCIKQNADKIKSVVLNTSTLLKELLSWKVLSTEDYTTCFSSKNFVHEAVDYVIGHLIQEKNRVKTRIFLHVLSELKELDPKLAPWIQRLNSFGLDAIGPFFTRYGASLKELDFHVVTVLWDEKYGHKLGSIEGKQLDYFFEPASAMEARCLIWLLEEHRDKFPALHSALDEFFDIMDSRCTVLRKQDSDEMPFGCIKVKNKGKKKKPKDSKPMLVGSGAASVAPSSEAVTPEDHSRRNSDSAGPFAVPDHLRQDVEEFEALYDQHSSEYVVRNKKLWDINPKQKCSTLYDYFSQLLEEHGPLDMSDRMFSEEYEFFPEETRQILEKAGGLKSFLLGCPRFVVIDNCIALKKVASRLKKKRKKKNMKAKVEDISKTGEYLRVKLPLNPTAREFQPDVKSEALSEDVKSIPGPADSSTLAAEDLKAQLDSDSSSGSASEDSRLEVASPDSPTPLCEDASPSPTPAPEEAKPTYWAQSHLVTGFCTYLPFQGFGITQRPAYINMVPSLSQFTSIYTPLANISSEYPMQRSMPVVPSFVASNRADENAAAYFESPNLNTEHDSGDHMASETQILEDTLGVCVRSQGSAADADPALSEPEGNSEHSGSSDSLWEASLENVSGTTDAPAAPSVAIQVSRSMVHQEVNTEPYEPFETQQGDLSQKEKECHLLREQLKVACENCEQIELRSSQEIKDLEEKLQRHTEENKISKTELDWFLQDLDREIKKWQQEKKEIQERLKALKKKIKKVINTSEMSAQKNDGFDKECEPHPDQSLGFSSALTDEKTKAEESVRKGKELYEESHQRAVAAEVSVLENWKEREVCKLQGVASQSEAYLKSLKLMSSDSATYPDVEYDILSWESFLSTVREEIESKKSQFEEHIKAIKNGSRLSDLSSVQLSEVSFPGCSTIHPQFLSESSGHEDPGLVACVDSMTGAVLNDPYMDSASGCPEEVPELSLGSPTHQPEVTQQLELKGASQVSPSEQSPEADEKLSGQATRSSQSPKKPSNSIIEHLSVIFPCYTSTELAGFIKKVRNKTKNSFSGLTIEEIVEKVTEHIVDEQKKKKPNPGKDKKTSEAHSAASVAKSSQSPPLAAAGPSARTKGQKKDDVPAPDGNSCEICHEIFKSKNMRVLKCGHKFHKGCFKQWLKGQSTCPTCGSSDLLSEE

[3] = molecular target: T1, Auts2 (endogenous, mouse primary neurons) (mouse (endogenous in primary neurons)); remark: listed apart in the source

Measured: binding

Ttc3 (endogenous, mouse primary neurons) (from UniProt O88196 1-1979)
binds: all assays above
